Test results as given in paper PMC5240567, “New Insights into Cooperative Binding of Homeodomain Transcription Factors PREP1 and PBX1 to DNA”.
Results are given in words; binding and its absence hold for the method and conditions named.

Molecular target: T1, PBX1HD (UniProt P40424 227-317)
T1 sequence: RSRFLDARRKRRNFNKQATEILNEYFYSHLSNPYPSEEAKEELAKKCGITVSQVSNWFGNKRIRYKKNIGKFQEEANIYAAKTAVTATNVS
Experiment: native gel or EMSA; preformed HD:PMH DNA complex at fixed molar ratio titrated with the second HD (2, 4, 8 and in one case 16 uM); 20 mM Na/K phosphate pH 7.2, 150 mM NaCl, 5% glycerol, 1 mM TCEP; 10% non-denaturing gel, 0.5x TBE, 4 °C; ethidium bromide and coomassie staining; the slow band was identified by mass spectrometry; both purified

B1: PREP1_(hd-N) (PREP1 residues 240-325) (domain or fragment, UniProt P55347 240-325)
chain: QLQLQLNQDLSILHQDDGSSKNKRGVLPKHATNVMRSWLFQHIGHPYPTEDEKKQIAAQTNLTLLQVNNWFINARRRILQPMLDSS
Q: How did the binding turn out when B1 was run?
A: no binding (tested: PREP1hd-N at 2, 4, 8, and 16 μM)
